In PubChem BioAssay AID1347076 (National Center for Advancing Translational Sciences (NCATS), 2019):
In all, about 400,000 compounds went through this assay and about 13,000 (3.2%) were called active. The shares of active, inactive and inconclusive entries below differ from those in the screen. The call rests on the fitted dose curve; in most records, active means well fitted cell-killing curve with a large enough effect; inconclusive means small, poorly fitted or top-dose-only effect, or effect the other way; inactive means flat fitted curve, though single readings scatter. Where the call is inconclusive, the potency comes from a doubtful curve fit.

Assay: qHTS assay for MDR1-selective chemotherapeutics: Primary screen using the drug-selected MDR subline cells KB-V1; further: nearly all actives have a fitted effect of over 60% in size
Conditions: KB-V1 MDR cells viability, CellTiter-Glo, 72 h; activity change, negative = cytotoxicity: at 46.1 µM (top of the series)
Outline: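 Compound-treated KB-V1 multidrug-resistant cells, 72 h, 37 degrees C; viability by CellTiter-Glo. Fitted qHTS curves give the values.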
On the % scale 0 is the no-effect control and ±100 the full control effect; potency means the concentration at half of the fitted maximal effect.

| SMILES | Potency | activity change, negative = cytotoxicity |
| --- | --- | --- |
| Cc1cc(C)c(NC(=O)Cn2c(=O)n(CCC(=O)N3CCc4ccccc4C3)c(=O)c3ccccc32)c(C)c1 | inconclusive: 5.8 µM [cytotoxic, full curve, poor fit] | – |
| CCN(CC)S(=O)(=O)c1ccc2c(c1)N(CC(=O)N1CCN(c3cccc(C)c3C)CC1)C(=O)CO2 | – | inactive: 3.88% |
| Clc1ccc(-n2ncc3c(NC4CCCC4)ncnc32)cc1 | inconclusive: 32.6 µM [cytotoxic, single point] | – |
| COC(=O)c1ccc(NC(=O)C2CC2)o1 | – | inactive: 25.9% |
| CN(C(=O)COC(=O)c1cc2ccccc2cc1O)c1ccccc1 | inconclusive: 25.9 µM [rising, single point] | – |
| CCC1CCCCN1C(=S)NC(=O)c1cccc([N+](=O)[O-])c1 (stereo not given) | inconclusive: 18.4 µM [cytotoxic, single point] | – |
| CSc1nnc(SCC(=O)Nc2ccc3[nH]c(=O)[nH]c3c2)s1 | inconclusive: 29.1 µM [rising, single point] | – |
| O=Cc1cn(-c2ccccc2)nc1-c1ccc2c(c1)OCCO2 | – | inactive: 0% |
| CCCNC(=O)Nc1ccccc1SC | inconclusive: 23.1 µM [rising, single point] | – |
| C=C(C)COc1ccc(-c2[nH]ncc2Oc2cccc(OC)c2)c(O)c1 | inconclusive: 18.4 µM [cytotoxic, single point] | – |
| Cc1ccc(-n2c(=O)c3c(n4cnnc24)-c2ccccc2CC32CCCCC2)cc1 | inconclusive: 8.2 µM [cytotoxic, partial curve] | – |
| COCOCCn1cc(CN2CCS(=O)(=O)N(Cc3ccc(-c4ccc(F)cc4)cc3)C(C(C)C)C2=O)nn1 (stereo not given) | inconclusive: 20.6 µM [cytotoxic, single point] | – |
| Cc1c(C(C)C)c(=O)n(-c2ccc(S(=O)(=O)NCc3ccccc3)cc2)n1C | active: 2.59 µM | – |
| Cc1ccc(-c2nc3c(C)cc(Br)cn3c2Cc2cccc(F)c2)cc1 | inconclusive: 0.92 µM [cytotoxic, full curve] | – |
| O=c1[nH]c(-c2cccnc2)nc2ccccc12 | – | inactive: 18.6% |
| O=C(NC(=S)Nc1cccc(NC(=S)NC(=O)c2ccccc2)c1)c1ccccc1 | – | inactive: -1.25% |
| CCc1nn(CCCC(=O)NCc2ccc(OC(C)C)cc2)c(=O)c2cc3occc3n12 | inconclusive: 29.1 µM [cytotoxic, single point] | – |
| CNc1cncc(-c2ccc(OC)cc2OC)n1 | – | inactive: 3.4% |
| O=C(CN1C(=O)NC2(CCCC2)C1=O)OCC(=O)c1cccc(Cl)c1 | – | inactive: 16% |
| O=C(CSc1n[nH]c(-c2ccccc2Cl)n1)NCCc1ccccc1 | – | inactive: 0.108% |
| CC1=CC2C(C(O)CC3(C)C2CC(C)C32OCOC23COCO3)C2(C)C/C(=C\O)C(=O)C=C12 (stereo not given) | inconclusive: 16.4 µM [cytotoxic, single point] | – |
| CSc1ccccc1OCc1cc(C(=O)N2CCN(C)C(c3ccccc3)C2)no1 (stereo not given) | inconclusive: 20.6 µM [cytotoxic, single point] | – |
| NC(=O)CC(NC(=O)c1cccc(Br)c1)c1ccc(N2CCN(c3ccc(F)cc3)CC2)c([N+](=O)[O-])c1 (stereo not given) | – | inactive: -1.05% |

Grouped by structure, those above containing two or more sulfur atoms (2)

| SMILES | Potency | activity change, negative = cytotoxicity |
| --- | --- | --- |
| CSc1nnc(SCC(=O)Nc2ccc3[nH]c(=O)[nH]c3c2)s1 | inconclusive: 29.1 µM [rising, single point] | – |
| O=C(NC(=S)Nc1cccc(NC(=S)NC(=O)c2ccccc2)c1)c1ccccc1 | – | inactive: -1.25% |

Going on with the list:

| SMILES | Potency | activity change, negative = cytotoxicity |
| --- | --- | --- |
| Cn1nc(C(F)(F)F)c(-c2ccccc2)c1N | inconclusive: 18.4 µM [cytotoxic, single point] | – |
| C=C(C)COc1ccc(-c2[nH]ncc2-c2ccccc2)c(O)c1 | inconclusive: 29.1 µM [cytotoxic, single point] | – |
| CC1(C(=O)Nc2ccc3c(c2)OCO3)CCN1Cc1ccccc1OC(F)F (stereo not given) | – | inactive: -33% |
| CO/N=C/c1ccc(N2CCN(C(=O)c3ccc(C)cc3)CC2)c([N+](=O)[O-])c1 | active: 9.2 µM | – |
| C=CCn1c(SCC(=O)NC2CC2)nnc1C1CC1 | – | inactive: 6.48% |
| COc1ccc(N2CCN(C(=O)C3CCN(S(=O)(=O)N4CCOCC4)CC3)CC2)cc1 | – | inactive: -0.0341% |
| Cc1ccc(-c2nnc(N3CCN(C(=O)CN4CCOCC4)CC3)c3ccccc23)cc1 | active: 13 µM | – |
| COc1ccc(C(=O)N2CCN(c3ccccn3)CC2)cc1[N+](=O)[O-] | inconclusive: 13 µM [cytotoxic, partial curve, poor fit] | – |
| Cc1cc(NC(=O)CSc2nc3ccsc3c(=O)n2CCCC(=O)NCCc2ccccc2)no1 | inconclusive: 29.1 µM [cytotoxic, single point] | – |
| CCN(C(=O)c1ccc2c(c1)OCO2)C1CCS(=O)(=O)C1 (stereo not given) | inconclusive: 14.6 µM [rising, partial curve, poor fit] | – |
| COc1ccc(C2=NN(C(=O)CSc3nc4ccccc4s3)C(c3ccc(F)cc3)C2)cc1 (stereo not given) | active: 11.6 µM | – |
| CN1CCN(C(=O)C(=O)Nc2c3c(nn2-c2ccc(Cl)cc2)CSC3)CC1 | – | inactive: -2.94% |
| COCCC1CCCCN1C(=O)c1cc(COc2ccc(-n3cncn3)cc2)on1 (stereo not given) | inconclusive: 1.84 µM [cytotoxic, partial curve] | – |
| Cc1cc(-c2nn(-c3ccccc3F)cc2CN2CCN(c3ccncc3)CC2)c(C)s1 | – | inactive: -28.5% |
| COc1cc2c(cc1OC)C(c1ccc(Br)cc1)N(C(=O)c1ccccc1C(=O)O)CC2 (stereo not given) | – | inactive: -9.46% |
| O=C(CNC1CCCCC1)Nc1ccc(S(=O)(=O)N2CCCCC2)cc1 | inconclusive: 16.4 µM [cytotoxic, single point] | – |
| CCC(=O)NCCc1nc2cc(NC(=O)c3cccc(Br)c3)ccc2n1C | inconclusive: 23.1 µM [rising, single point] | – |
| Cn1c(=O)c(C(=O)O)nn(-c2ccccc2)c1=O | inconclusive: 16.4 µM [rising, partial curve, poor fit] | – |
| CCOC(=O)c1[nH]c(C)c(C(=O)N2CCN(c3ccc(F)cc3)CC2)c1C | inconclusive: 29.1 µM [cytotoxic, single point] | – |
| Cc1ccc(N2C(=O)CCSC23C(=O)N(Cc2ccccc2)c2ccccc23)cc1 (stereo not given) | inconclusive: 5.8 µM [cytotoxic, full curve, poor fit] | – |
| CCOC(=O)c1[nH]c2cc(OC)c(OC)cc2c1NC(=O)C(C)N1CCN(Cc2ccccc2)CC1 (stereo not given) | inconclusive: 10.3 µM [cytotoxic, partial curve, poor fit] | – |
| Cc1ccc(NC(=S)NNC(=O)c2ccccc2OC(F)F)cc1 | inconclusive: 2.59 µM [cytotoxic, full curve] | – |
